No constants are given. Whether binding was seen depends on the method and setting. Binding seen in cells or lysates may run through a third protein. These calls come from enrichment with a bait or labelling near it, and not all partners need be listed.
Target: T1, CLN7 (human (endogenous in SH-SY5Y)) (UniProt Q8NHS3)
T1 sequence: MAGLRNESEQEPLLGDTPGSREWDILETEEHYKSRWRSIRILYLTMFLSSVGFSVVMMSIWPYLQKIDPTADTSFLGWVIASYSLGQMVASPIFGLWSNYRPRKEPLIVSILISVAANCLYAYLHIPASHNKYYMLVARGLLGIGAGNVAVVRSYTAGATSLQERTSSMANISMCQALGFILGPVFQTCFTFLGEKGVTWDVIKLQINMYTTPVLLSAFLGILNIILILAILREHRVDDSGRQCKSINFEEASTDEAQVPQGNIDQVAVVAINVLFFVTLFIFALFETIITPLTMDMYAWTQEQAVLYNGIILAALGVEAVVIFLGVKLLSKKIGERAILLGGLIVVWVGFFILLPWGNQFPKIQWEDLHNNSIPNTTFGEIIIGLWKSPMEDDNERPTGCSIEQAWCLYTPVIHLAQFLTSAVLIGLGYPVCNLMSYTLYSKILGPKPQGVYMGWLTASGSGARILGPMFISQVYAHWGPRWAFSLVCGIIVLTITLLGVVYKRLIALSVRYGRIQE
Assay: affinity purification with mass spectrometry; endogenous CLN7 immunoprecipitated from 2.5 mg SH-SY5Y lysate with a polyclonal anti-CLN7 antibody raised against L9 (351-421aa, Proteintech) on G-sepharose beads; IgG as non-specific binding control; 4 independent replicates; cells under steady state culture conditions

Binder | binding
WDR24 (protein, UniProt Q96S15 1-790) MEKMSRVTTALGGSVLTGRTMHCHLDAPANAISVCRDAAQVVVAGRSIFKIYAIEEEQFVEKLNLRVGRKPSLNLSCADVVWHQMDENLLATAATNGVVVTWNLGRPSRNKQDQLFTEHKRTVNKVCFHPTEAHVLLSGSQDGFMKCFDLRRKDSVSTFSGQSESVRDVQFSIRDYFTFASTFENGNVQLWDIRRPDRCERMFTAHNGPVFCCDWHPEDRGWLATGGRDKMVKVWDMTTHRAKEMHCVQTIASVARVKWRPECRHHLATCSMMVDHNIYVWDVRRPFVPAAMFEEHRDVTTGIAWRHPHDPSFLLSGSKDSSLCQHLFRDASQPVERANPEGLCYGLFGDLAFAAKESLVAAESGRKPYTGDRRHPIFFKRKLDPAEPFAGLASSALSVFETEPGGGGMRWFVDTAERYALAGRPLAELCDHNAKVARELGRNQVAQTWTMLRIIYCSPGLVPTANLNHSVGKGGSCGLPLMNSFNLKDMAPGLGSETRLDRSKGDARSDTVLLDSSATLITNEDNEETEGSDVPADYLLGDVEGEEDELYLLDPEHAHPEDPECVLPQEAFPLRHEIVDTPPGPEHLQDKADSPHVSGSEADVASLAPVDSSFSLLSVSHALYDSRLPPDFFGVLVRDMLHFYAEQGDVQMAVSVLIVLGERVRKDIDEQTQEHWYTSYIDLLQRFRLWNVSNEVVKLSTSRAVSCLNQASTTLHVNCSHCKRPMSSRGWVCDRCHRCASMCAVCHHVVKGLFVWCQGCSHGGHLQHIMKWLEGSSHCPAGCGHLCEYS | binds
WDR3 (protein, UniProt Q9UNX4 1-943) MGLTKQYLRYVASAVFGVIGSQKGNIVFVTLRGEKGRYVAVPACEHVFIWDLRKGEKILILQGLKQEVTCLCPSPDGLHLAVGYEDGSIRIFSLLSGEGNVTFNGHKAAITTLKYDQLGGRLASGSKDTDIIVWDVINESGLYRLKGHKDAITQALFLREKNLLVTSGKDTMVKWWDLDTQHCFKTMVGHRTEVWGLVLLSEEKRLITGASDSELRVWDIAYLQEIEDPEEPDPKKIKGSSPGIQDTLEAEDGAFETDEAPEDRILSCRKAGSIMREGRDRVVNLAVDKTGRILACHGTDSVLELFCILSKKEIQKKMDKKMKKARKKAKLHSSKGEEEDPEVNVEMSLQDEIQRVTNIKTSAKIKSFDLIHSPHGELKAVFLLQNNLVELYSLNPSLPTPQPVRTSRITIGGHRSDVRTLSFSSDNIAVLSAAADSIKIWNRSTLQCIRTMTCEYALCSFFVPGDRQVVIGTKTGKLQLYDLASGNLLETIDAHDGALWSMSLSPDQRGFVTGGADKSVKFWDFELVKDENSTQKRLSVKQTRTLQLDEDVLCVSYSPNQKLLAVSLLDCTVKIFYVDTLKFFLSLYGHKLPVICMDISHDGALIATGSADRNVKIWGLDFGDCHKSLFAHDDSVMYLQFVPKSHLFFTAGKDHKIKQWDADKFEHIQTLEGHHQEIWCLAVSPSGDYVVSSSHDKSLRLWERTREPLILEEEREMEREAEYEESVAKEDQPAVPGETQGDSYFTGKKTIETVKAAERIMEAIELYREETAKMKEHKAICKAAGKEVPLPSNPILMAYGSISPSAYVLEIFKGIKSSELEESLLVLPFSYVPDILKLFNEFIQLGSDVELICRCLFFLLRIHFGQITSNQMLVPVIEKLRETTISKVSQVRDVIGFNMAGLDYLKRECEAKSEVMFFADATSHLEEKKRKRKKREKLILTLT | binds
WDR35 (protein, UniProt Q9P2L0 1-1181) MFFYLSKKISIPNNVKLQCVSWNKEQGFIACGGEDGLLKVLKLETQTDDAKLRGLAAPSNLSMNQTLEGHSGSVQVVTWNEQYQKLTTSDENGLIIVWMLYKGSWIEEMINNRNKSVVRSMSWNADGQKICIVYEDGAVIVGSVDGNRIWGKDLKGIQLSHVTWSADSKVLLFGMANGEIHIYDNQGNFMIKMKLSCLVNVTGAISIAGIHWYHGTEGYVEPDCPCLAVCFDNGRCQIMRHENDQNPVLIDTGMYVVGIQWNHMGSVLAVAGFQKAAMQDKDVNIVQFYTPFGEHLGTLKVPGKEISALSWEGGGLKIALAVDSFIYFANIRPNYKWGYCSNTVVYAYTRPDRPEYCVVFWDTKNNEKYVKYVKGLISITTCGDFCILATKADENHPQEENEMETFGATFVLVLCNSIGTPLDPKYIDIVPLFVAMTKTHVIAASKEAFYTWQYRVAKKLTALEINQITRSRKEGRERIYHVDDTPSGSMDGVLDYSKTIQGTRDPICAITASDKILIVGRESGTIQRYSLPNVGLIQKYSLNCRAYQLSLNCNSSRLAIIDISGVLTFFDLDARVTDSTGQQVVGELLKLERRDVWDMKWAKDNPDLFAMMEKTRMYVFRNLDPEEPIQTSGYICNFEDLEIKSVLLDEILKDPEHPNKDYLINFEIRSLRDSRALIEKVGIKDASQFIEDNPHPRLWRLLAEAALQKLDLYTAEQAFVRCKDYQGIKFVKRLGKLLSESMKQAEVVGYFGRFEEAERTYLEMDRRDLAIGLRLKLGDWFRVLQLLKTGSGDADDSLLEQANNAIGDYFADRQKWLNAVQYYVQGRNQERLAECYYMLEDYEGLENLAISLPENHKLLPEIAQMFVRVGMCEQAVTAFLKCSQPKAAVDTCVHLNQWNKAVELAKNHSMKEIGSLLARYASHLLEKNKTLDAIELYRKANYFFDAAKLMFKIADEEAKKGSKPLRVKKLYVLSALLIEQYHEQMKNAQRGKVKGKSSEATSALAGLLEEEVLSTTDRFTDNAWRGAEAYHFFILAQRQLYEGCVDTALKTALHLKDYEDIIPPVEIYSLLALCACASRAFGTCSKAFIKLKSLETLSSEQKQQYEDLALEIFTKHTSKDNRKPELDSLMEGGEGKLPTCVATGSPITEYQFWMCSVCKHGVLAQEISHYSFCPLCHSPVG | binds
WDR59 (protein, UniProt Q6PJI9 1-974) MAARWSSENVVVEFRDSQATAMSVDCLGQHAVLSGRRFLYIVNLDAPFEGHRKISRQSKWDIGAVQWNPHDSFAHYFAASSNQRVDLYKWKDGSGEVGTTLQGHTRVISDLDWAVFEPDLLVTSSVDTYIYIWDIKDTRKPTVALSAVAGASQVKWNKKNANCLATSHDGDVRIWDKRKPSTAVEYLAAHLSKIHGLDWHPDSEHILATSSQDNSVKFWDYRQPRKYLNILPCQVPVWKARYTPFSNGLVTVMVPQLRRENSLLLWNVFDLNTPVHTFVGHDDVVLEFQWRKQKEGSKDYQLVTWSRDQTLRMWRVDSQMQRLCANDILDGVDEFIESISLLPEPEKTLHTEDTDHQHTASHGEEEALKEDPPRNLLEERKSDQLGLPQTLQQEFSLINVQIRNVNVEMDAADRSCTVSVHCSNHRVKMLVKFPAQYPNNAAPSFQFINPTTITSTMKAKLLKILKDTALQKVKRGQSCLEPCLRQLVSCLESFVNQEDSASSNPFALPNSVTPPLPTFARVTTAYGSYQDANIPFPRTSGARFCGAGYLVYFTRPMTMHRAVSPTEPTPRSLSALSAYHTGLIAPMKIRTEAPGNLRLYSGSPTRSEKEQVSISSFYYKERKSRRWKSKREGSDSGNRQIKAAGKVIIQDIACLLPVHKSLGELYILNVNDIQETCQKNAASALLVGRKDLVQVWSLATVATDLCLGPKSDPDLETPWARHPFGRQLLESLLAHYCRLRDVQTLAMLCSVFEAQSRPQGLPNPFGPFPNRSSNLVVSHSRYPSFTSSGSCSSMSDPGLNTGGWNIAGREAEHLSSPWGESSPEELRFGSLTYSDPRERERDQHDKNKRLLDPANTQQFDDFKKCYGEILYRWGLREKRAEVLKFVSCPPDPHKGIEFGVYCSHCRSEVRGTQCAICKGFTFQCAICHVAVRGSSNFCLTCGHGGHTSHMMEWFRTQEVCPTGCGCHCLLESTF | binds
YTHDC2 (protein, UniProt Q9H6S0 1-1430) MSRPSSVSPRQPAPGGGGGGGPSPCGPGGGGRAKGLKDIRIDEEVKIAVNIALERFRYGDQREMEFPSSLTSTERAFIHRLSQSLGLVSKSKGKGANRYLTVKKKDGSETAHAMMTCNLTHNTKHAVRSLIQRFPVTNKERTELLPKTERGNVFAVEAENREMSKTSGRLNNGIPQIPVKRGESEFDSFRQSLPVFEKQEEIVKIIKENKVVLIVGETGSGKTTQIPQFLLDDCFKNGIPCRIFCTQPRRLAAIAVAERVAAERRERIGQTIGYQIRLESRVSPKTLLTFCTNGVLLRTLMAGDSTLSTVTHVIVDEVHERDRFSDFLLTKLRDLLQKHPTLKLILSSAALDVNLFIRYFGSCPVIYIQGRPFEVKEMFLEDILRTTGYTNKEMLKYKKEKQQEEKQQTTLTEWYSAQENSFKPESQRQRTVLNVTDEYDLLDDGGDAVFSQLTEKDVNCLEPWLIKEMDACLSDIWLHKDIDAFAQVFHLILTENVSVDYRHSETSATALMVAAGRGFASQVEQLISMGANVHSKASNGWMALDWAKHFGQTEIVDLLESYSATLEFGNLDESSLVQTNGSDLSAEDRELLKAYHHSFDDEKVDLDLIMHLLYNICHSCDAGAVLIFLPGYDEIVGLRDRILFDDKRFADSTHRYQVFMLHSNMQTSDQKKVLKNPPAGVRKIILSTNIAETSITVNDVVFVIDSGKVKEKSFDALNFVTMLKMVWISKASAIQRKGRAGRCRPGICFRLFSRLRFQNMLEFQTPELLRMPLQELCLHTKLLAPVNCPIADFLMKAPEPPPALIVRNAVQMLKTIDAMDTWEDLTELGYHLADLPVEPHLGKMVLCAVVLKCLDPILTIACTLAYRDPFVLPTQASQKRAAMLCRKRFTAGAFSDHMALLRAFQAWQKARSDGWERAFCEKNFLSQATMEIIIGMRTQLLGQLRASGFVRARGGGDIRDVNTNSENWAVVKAALVAGMYPNLVHVDRENLVLTGPKEKKVRFHPASVLSQPQYKKIPPANGQAAAIKALPTDWLIYDEMTRAHRIANIRCCSAVTPVTILVFCGPARLASNALQEPSSFRVDGIPNDSSDSEMEDKTTANLAALKLDEWLHFTLEPEAASLLLQLRQKWHSLFLRRMRAPSKPWSQVDEATIRAIIAVLSTEEQSAGLQQPSGIGQRPRPMSSEELPLASSWRSNNSRKSSADTEFSDECTTAERVLMKSPSPALHPPQKYKDRGILHPKRGTEDRSDQSSLKSTDSSSYPSPCASPSPPSSGKGSKSPSPRPNMPVRYFIMKSSNLRNLEISQQKGIWSTTPSNERKLNRAFWESSIVYLVFSVQGSGHFQGFSRMSSEIGREKSQDWGSAGLGGVFKVEWIRKESLPFQFAHHLLNPWNDNKKVQISRDGQELEPLVGEQLLQLWERLPLGEKNTTD | binds

Source: PMC12579238
